Assay results taken from US20130203726A1, “FtsZ INHIBITORS AS POTENTIATORS OF BETA-LACTAM ANTIBIOTICS AGAINST METHICILLIN-RESISTANT STAPHYLOCOCCUS” (priority 2010, published 2013).
At least one structure is not confirmed: it was looked up by name or label, or the drawing left a doubt. Some entries repeat one wording, which the source may state once for all of them.

tested on: MRSA COL strains bearing xylose-regulated antisense fragments corresponding to FtsZ, FtsA, or FtsW; assay type: cell-based, Staphylococcus aureus; conditions: 50 mM xylose (antisense induced) versus no xylose, FtsZ-AS
Description: See Forsyth et al., 2002, Mol. Microbial 43:1387-1400 for details concerning plasmid and antisense interference construction. Strains were grown overnight in Luria Bertani (LB) Miller broth at 37° C. containing 34 μg/ml chloramphenicol. Assay plates were prepared by seeding 10^7 cells/ml of each culture into 48° C. cooled LB Miller agar containing 34 μg/ml chloramphenicol. To partially repress FtsZ expression, 50 mM xylose was supplemented to plates. This antisense inducer concentration modestly impairs growth of each strain equally, reflecting a 20% inhibitory growth concentration (i.e., xylose IC20˜50 mM).
The following antibiotics were then spotted on the surface of the plates: carbapenems, imipenem (12.8 μg) and ertapenem (51.2 μg); cephalosporins, cefepime (102.4 μg), ceftazidime (102.4 μg), and ceftriaxone (102.4 μg); and the β-lactam piperacillin (combined with the […] in a 8:1 molar ratio (25.6 μg). As a control, MRSA COL was identically tested but under conditions where no xylose was supplemented into the medium (i.e., non-repressed FtsZ) as well as by identically processing the MRSA COL strain transformed with pEPSA5 but lacking an antisense fragment (data not shown). As a control for the specificity of ftsZ, ftsA, and ftsW mutant susceptibility to β-lactams, the non-β-lactam cell wall antibiotic, vancomycin (0.8 μg) was additionally spotted. Plates were then incubated at 37° C. for 16 h and photographed.
The effect FtsZ, FtsA, or FtsW imparts on MRSA susceptibility to the above antibiotics was determined by comparing their zone of inhibition between plates supplemented with antisense inducer (50 mM xylose) versus those without xylose. Differential antibiotic zones of inhibition between FtsZ, FtsA, and FtsW antisense bearing strains grown under xylose induced versus non-induced conditions reflect Fts gene-dependent restoration of MRSA COL susceptibility to β-lactams.

Row | SMILES | change of susceptibility (zone of inhibition) on partial genetic inactivation of FtsZ, FtsA or FtsW
1 | C[C@H]1COc2c(N3CCN(C)CC3)c(F)cc3c(=O)c(C(=O)O)cn1c23 [levofloxacin] | none of the FtsZ-AS, FtsA-AS, or FtsW-AS strains demonstrated altered hypersensitivity
2 | CO[C@H]1/C=C/O[C@@]2(C)Oc3c(C)c(O)c4c(O)c(c(/C=N/N5CCN(C)CC5)c(O)c4c3C2=O)NC(=O)/C(C)=C\C=C\[C@H](C)[C@H](O)[C@@H](C)[C@@H](O)[C@@H](C)[C@H](OC(C)=O)[C@@H]1C [rifampicin] | none of the FtsZ-AS, FtsA-AS, or FtsW-AS strains demonstrated altered hypersensitivity
3 | CN(C)[C@@H]1C(O)=C(C(N)=O)C(=O)[C@@]2(O)C(O)=C3C(=O)c4c(O)cccc4[C@@](C)(O)[C@H]3C[C@@H]12 [tetracycline] | none of the FtsZ-AS, FtsA-AS, or FtsW-AS strains demonstrated altered hypersensitivity
